The supplement of paper PMC10849652
The other results are listed elsewhere or left out.

The chains behind the UniProt entries cited, without tags or fusion partners. Where a name states a change or a piece, a line headed by the entry shows the natural chain unless it says otherwise.
UniProt Q9H9B4: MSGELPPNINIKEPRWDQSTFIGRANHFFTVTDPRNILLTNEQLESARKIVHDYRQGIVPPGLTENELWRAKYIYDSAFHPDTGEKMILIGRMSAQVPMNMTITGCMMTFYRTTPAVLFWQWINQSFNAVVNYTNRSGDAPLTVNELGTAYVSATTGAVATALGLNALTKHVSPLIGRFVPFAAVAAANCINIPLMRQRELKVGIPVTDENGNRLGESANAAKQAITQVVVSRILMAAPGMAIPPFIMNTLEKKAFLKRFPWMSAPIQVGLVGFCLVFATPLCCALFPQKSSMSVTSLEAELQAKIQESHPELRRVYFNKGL
UniProt Q9UJC5: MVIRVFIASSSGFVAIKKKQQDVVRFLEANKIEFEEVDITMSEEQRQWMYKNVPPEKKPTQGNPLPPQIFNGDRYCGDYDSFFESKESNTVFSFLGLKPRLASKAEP
UniProt P53985: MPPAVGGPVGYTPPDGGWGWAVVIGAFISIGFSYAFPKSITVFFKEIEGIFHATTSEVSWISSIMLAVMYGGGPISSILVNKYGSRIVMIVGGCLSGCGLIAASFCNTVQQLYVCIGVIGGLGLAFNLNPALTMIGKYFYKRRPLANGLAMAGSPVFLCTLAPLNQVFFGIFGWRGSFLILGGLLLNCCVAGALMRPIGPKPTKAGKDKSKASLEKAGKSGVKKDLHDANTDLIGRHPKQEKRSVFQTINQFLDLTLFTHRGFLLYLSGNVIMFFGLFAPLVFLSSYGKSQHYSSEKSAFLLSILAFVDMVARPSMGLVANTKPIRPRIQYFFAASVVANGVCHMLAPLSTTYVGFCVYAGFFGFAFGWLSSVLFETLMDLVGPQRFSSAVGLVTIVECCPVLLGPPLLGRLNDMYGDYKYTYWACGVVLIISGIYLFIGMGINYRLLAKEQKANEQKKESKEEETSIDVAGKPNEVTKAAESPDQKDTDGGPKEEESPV
UniProt Q0GE19: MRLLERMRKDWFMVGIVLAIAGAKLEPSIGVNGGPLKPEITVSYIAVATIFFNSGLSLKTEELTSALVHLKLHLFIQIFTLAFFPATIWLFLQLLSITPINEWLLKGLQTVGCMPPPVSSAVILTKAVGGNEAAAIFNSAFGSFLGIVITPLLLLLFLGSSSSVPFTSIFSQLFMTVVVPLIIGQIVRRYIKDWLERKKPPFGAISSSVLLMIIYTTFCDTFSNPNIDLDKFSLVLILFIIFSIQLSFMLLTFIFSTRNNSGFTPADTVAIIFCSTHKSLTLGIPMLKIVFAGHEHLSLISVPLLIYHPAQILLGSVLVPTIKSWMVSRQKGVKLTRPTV
UniProt P36952: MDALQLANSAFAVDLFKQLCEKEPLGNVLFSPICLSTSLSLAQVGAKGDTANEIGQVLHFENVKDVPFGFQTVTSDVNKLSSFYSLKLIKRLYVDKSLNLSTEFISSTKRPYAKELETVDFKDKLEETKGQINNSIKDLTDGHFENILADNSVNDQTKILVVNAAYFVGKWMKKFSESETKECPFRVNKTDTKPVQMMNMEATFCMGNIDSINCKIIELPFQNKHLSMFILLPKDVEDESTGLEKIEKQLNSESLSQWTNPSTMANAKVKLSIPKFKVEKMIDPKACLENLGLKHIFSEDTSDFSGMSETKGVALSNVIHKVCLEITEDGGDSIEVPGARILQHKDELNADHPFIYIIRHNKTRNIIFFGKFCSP
UniProt Q9NRA2: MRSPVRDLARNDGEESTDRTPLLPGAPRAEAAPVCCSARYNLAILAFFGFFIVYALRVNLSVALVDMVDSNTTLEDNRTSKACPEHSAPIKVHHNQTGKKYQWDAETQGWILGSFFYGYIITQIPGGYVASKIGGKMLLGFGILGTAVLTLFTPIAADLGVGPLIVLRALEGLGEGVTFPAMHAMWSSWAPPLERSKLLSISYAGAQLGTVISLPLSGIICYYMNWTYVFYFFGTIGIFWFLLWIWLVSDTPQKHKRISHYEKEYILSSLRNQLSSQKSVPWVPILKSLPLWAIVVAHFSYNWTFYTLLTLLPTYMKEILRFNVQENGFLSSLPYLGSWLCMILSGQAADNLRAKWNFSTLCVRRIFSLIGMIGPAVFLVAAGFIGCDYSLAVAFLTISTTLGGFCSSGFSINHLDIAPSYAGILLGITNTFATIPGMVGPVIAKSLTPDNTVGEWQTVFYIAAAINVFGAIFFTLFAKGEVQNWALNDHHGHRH
UniProt Q9UIU6: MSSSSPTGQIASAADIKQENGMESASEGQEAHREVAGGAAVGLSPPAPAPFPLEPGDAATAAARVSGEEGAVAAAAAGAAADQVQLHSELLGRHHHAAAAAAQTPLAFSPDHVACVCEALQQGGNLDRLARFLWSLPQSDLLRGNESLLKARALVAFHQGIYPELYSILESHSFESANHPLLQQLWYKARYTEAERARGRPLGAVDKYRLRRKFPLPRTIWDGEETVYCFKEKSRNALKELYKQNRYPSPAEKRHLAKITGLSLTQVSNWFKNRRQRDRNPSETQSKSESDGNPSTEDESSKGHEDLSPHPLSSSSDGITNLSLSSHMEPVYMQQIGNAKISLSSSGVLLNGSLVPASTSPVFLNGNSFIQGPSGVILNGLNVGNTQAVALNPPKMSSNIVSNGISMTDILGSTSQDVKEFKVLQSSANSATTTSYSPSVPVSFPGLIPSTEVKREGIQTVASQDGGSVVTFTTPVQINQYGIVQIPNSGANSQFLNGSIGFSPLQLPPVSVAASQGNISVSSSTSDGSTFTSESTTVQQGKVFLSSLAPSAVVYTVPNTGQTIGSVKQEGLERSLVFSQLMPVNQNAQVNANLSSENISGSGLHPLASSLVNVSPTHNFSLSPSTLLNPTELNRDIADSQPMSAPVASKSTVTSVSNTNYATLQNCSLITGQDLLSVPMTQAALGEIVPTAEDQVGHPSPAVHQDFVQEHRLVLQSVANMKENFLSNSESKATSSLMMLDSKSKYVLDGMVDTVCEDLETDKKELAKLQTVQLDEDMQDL
UniProt Q96HU1: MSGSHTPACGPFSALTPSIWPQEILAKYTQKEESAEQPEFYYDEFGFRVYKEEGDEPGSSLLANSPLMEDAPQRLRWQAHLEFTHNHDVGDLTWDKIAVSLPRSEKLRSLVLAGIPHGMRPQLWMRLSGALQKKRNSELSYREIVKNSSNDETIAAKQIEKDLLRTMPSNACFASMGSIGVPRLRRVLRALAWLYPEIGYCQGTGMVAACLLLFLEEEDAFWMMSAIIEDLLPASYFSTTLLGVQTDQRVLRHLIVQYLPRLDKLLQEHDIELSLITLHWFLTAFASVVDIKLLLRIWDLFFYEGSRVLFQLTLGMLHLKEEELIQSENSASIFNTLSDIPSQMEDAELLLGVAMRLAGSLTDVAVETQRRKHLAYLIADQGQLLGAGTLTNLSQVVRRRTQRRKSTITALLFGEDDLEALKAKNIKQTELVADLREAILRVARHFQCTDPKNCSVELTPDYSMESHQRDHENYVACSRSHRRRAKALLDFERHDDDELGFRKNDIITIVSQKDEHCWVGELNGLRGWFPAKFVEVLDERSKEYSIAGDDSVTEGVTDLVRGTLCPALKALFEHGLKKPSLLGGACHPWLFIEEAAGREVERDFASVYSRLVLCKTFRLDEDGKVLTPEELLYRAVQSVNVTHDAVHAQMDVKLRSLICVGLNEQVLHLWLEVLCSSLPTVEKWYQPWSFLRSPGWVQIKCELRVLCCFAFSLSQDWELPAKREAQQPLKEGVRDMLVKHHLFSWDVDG
UniProt Q15464: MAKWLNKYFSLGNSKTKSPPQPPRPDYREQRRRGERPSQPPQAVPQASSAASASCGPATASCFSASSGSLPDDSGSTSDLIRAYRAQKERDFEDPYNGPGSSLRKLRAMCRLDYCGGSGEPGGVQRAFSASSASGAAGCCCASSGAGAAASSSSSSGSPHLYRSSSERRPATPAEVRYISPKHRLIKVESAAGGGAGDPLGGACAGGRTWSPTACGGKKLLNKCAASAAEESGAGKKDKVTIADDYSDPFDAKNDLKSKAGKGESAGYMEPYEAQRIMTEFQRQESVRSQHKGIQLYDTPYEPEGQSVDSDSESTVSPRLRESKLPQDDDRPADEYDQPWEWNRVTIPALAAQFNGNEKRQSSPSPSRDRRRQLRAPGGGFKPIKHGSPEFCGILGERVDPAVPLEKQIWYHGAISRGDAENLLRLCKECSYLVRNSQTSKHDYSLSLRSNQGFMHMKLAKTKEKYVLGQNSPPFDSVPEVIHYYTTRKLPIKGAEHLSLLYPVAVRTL
UniProt Q15637: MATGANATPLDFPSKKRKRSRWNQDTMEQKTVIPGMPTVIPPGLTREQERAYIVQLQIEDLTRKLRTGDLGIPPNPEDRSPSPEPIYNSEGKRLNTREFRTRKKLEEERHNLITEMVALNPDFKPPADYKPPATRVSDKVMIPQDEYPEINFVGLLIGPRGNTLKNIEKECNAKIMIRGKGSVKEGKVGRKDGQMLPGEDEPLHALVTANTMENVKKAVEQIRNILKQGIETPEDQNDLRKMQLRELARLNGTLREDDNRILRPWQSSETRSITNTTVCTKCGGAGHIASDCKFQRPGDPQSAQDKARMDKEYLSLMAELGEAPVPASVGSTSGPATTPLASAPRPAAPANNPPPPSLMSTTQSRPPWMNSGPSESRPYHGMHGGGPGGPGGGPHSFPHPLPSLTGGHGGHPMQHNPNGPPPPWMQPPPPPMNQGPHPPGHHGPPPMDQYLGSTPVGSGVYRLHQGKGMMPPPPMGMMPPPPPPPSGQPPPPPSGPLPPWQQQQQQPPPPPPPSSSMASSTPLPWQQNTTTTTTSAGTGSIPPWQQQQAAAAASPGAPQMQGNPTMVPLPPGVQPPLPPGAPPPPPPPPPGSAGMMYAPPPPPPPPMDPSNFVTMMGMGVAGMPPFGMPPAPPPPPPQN
UniProt Q13309, whole entry, looked up: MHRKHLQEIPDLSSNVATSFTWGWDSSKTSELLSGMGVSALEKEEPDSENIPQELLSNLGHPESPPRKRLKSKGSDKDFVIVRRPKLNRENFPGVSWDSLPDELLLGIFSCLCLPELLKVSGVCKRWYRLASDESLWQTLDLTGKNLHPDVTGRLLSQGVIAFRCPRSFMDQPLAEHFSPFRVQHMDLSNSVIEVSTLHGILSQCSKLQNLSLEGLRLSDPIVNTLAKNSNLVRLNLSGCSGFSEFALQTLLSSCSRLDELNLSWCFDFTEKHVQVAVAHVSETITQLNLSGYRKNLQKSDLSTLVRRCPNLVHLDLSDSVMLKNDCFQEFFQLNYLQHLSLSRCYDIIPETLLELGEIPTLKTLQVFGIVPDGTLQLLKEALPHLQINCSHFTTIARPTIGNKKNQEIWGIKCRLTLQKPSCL
UniProt Q8TD22: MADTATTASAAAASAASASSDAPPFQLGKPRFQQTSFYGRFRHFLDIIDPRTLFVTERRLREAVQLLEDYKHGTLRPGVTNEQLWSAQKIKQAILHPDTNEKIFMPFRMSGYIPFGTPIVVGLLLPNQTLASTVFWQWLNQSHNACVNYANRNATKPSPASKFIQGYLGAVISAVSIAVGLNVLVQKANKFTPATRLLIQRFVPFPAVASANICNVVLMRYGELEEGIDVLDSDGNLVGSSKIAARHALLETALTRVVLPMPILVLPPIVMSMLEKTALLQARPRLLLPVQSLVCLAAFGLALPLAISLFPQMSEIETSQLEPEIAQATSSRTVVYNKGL
UniProt Q6NT16: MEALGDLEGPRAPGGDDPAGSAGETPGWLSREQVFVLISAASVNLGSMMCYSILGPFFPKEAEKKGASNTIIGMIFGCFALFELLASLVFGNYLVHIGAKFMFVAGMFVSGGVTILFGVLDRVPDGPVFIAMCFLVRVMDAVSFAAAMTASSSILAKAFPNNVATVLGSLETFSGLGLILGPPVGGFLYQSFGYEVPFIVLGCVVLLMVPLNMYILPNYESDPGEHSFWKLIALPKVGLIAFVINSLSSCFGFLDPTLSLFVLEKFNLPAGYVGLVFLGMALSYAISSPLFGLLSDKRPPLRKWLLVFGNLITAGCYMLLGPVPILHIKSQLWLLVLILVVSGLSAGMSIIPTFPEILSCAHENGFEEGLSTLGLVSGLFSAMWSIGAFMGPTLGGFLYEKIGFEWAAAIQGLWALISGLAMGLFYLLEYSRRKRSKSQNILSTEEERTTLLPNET
UniProt Q9Y6P5: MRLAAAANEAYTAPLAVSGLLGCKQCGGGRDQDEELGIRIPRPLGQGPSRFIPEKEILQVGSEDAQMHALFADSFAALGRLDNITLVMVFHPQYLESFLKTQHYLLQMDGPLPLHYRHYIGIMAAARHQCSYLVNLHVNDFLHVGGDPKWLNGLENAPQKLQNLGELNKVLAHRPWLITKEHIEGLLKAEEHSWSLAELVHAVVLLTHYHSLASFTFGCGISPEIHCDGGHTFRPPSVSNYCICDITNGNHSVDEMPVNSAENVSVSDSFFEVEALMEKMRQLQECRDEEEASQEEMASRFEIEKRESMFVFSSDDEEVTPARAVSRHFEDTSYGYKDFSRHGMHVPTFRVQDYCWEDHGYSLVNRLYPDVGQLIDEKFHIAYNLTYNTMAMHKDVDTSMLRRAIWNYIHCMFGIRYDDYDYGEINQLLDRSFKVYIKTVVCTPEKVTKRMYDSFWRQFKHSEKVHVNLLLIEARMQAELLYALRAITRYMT

Experiments:
Experiment in all cases: log2 fold change, soluble protein after heating vs DMSO (PISA); higher = thermal stabilisation; K562 lysate, 10 uM; active = over 0.2 and 3.5 SD of the protein, either way, in both replicates (recomputed)
lapatinib = compound: CS(=O)(=O)CCNCc1ccc(-c2ccc3ncnc(Nc4ccc(OCc5cccc(F)c5)c(Cl)c4)c3c2)o1 [lapatinib]
Summary of the method: (§1)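 A 30 min treatment with 10 μM compound was applied to crude K562 extract at 1 mg/mL protein in PBS pH 7.4 with 1 mM MgCl2. Heating for 3 min spanned 48°C-58°C, after which aliquots were pooled, adjusted to 0.5% NP-40 at 4°C and spun at 21,000xg for 90 min. TMTpro 16plex LC-MS/MS of the supernatant, with channel sums equalised, gave values recorded as log-two fold change in thermal stability against solvent controls, from duplicates.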

pictilisib = compound: CS(=O)(=O)N1CCN(Cc2cc3nc(-c4cccc5[nH]ncc45)nc(N4CCOCC4)c3s2)CC1 [pictilisib]
Summary of the method: as §1

crizotinib = compound: C[C@@H](Oc1cc(-c2cnn(C3CCNCC3)c2)cnc1N)c1c(Cl)ccc(F)c1Cl [crizotinib]
Summary of the method: as §1

[1] = compound: C[C@H](C1=CC=C(C=C1)C(=O)NC2=C3C=CNC3=NC=C2)N
Summary of the method: as §1

duvelisib = compound: C[C@H](Nc1ncnc2nc[nH]c12)c1cc2cccc(Cl)c2c(=O)n1-c1ccccc1 [duvelisib]
Summary of the method: as §1

gandotinib = compound: Cc1cc(Nc2cc(CN3CCOCC3)c3nc(C)c(Cc4ccc(Cl)cc4F)n3n2)n[nH]1 [gandotinib]
Summary of the method: as §1

tozasertib = compound: Cc1cc(Nc2cc(N3CCN(C)CC3)nc(Sc3ccc(NC(=O)C4CC4)cc3)n2)n[nH]1 [tozasertib]
Summary of the method: as §1

doramapimod = compound: Cc1ccc(-n2nc(C(C)(C)C)cc2NC(=O)Nc2ccc(OCCN3CCOCC3)c3ccccc23)cc1 [doramapimod]
Summary of the method: as §1

bafetinib = compound: Cc1ccc(NC(=O)c2ccc(CN3CC[C@H](N(C)C)C3)c(C(F)(F)F)c2)cc1Nc1nccc(-c2cncnc2)n1 [bafetinib]
Summary of the method: as §1

[2] = compound: Cc1cccc(CC(=O)N2CCc3c2ccc(-c2cn(C)c4ncnc(N)c24)c3F)n1
Summary of the method: as §1

Target	log2 fold change (lapatinib)	log2 fold change (pictilisib)	log2 fold change (crizotinib)	log2 fold change [1]	log2 fold change (duvelisib)	log2 fold change (gandotinib)	log2 fold change (tozasertib)	log2 fold change (doramapimod)	log2 fold change (bafetinib)	log2 fold change [2]
SETD2 (UniProt Q9BYW2)	inactive: -0.01	inactive: 0.028	inactive: -0.002	inactive: -0.045	inactive: 0.004	inactive: 0.036	inactive: -0.011	inactive: 0.024	inactive: -0.038	inactive: 0.079
SFR1 isoform 2 (UniProt Q86XK3)	inactive: 0.001	inactive: 0.053	inactive: 0.006	inactive: 0.09	inactive: 0.043	inactive: 0.169	inactive: -0.002	inactive: 0.068	inactive: -0.097	active: 0.261
SFXN1 (UniProt Q9H9B4)	inactive: -0.08	inactive: -0.011	inactive: -0.047	inactive: 0.001	inactive: -0.007	inactive: -0.127	inactive: -0.003	inactive: 0	inactive: -0.042	inactive: 0.077
SH3BGRL2 (UniProt Q9UJC5)	inactive: 0.021	inactive: 0.012	inactive: -0.025	active: 0.342	inactive: -0.007	inactive: -0.116	inactive: -0.078	inactive: 0.021	inactive: -0.058	inactive: -0.184
SH3KBP1 (UniProt Q96B97)	inactive: -0.041	inactive: -0.094	inactive: -0.027	inactive: -0.034	inactive: -0.04	inactive: -0.004	inactive: 0.034	inactive: -0.03	inactive: 0.035	inactive: 0.044
SIRT6 (UniProt Q8N6T7)	inactive: -0.173	inactive: -0.091	inactive: -0.038	inactive: -0.029	inactive: 0.041	inactive: -0.004	inactive: -0.021	inactive: 0.159	inactive: -0.013	inactive: 0.071
SLC16A1 (UniProt P53985)	inactive: -0.009	inactive: 0.019	inactive: 0.006	active: -0.341	inactive: -0.011	inactive: 0.22	inactive: -0.008	inactive: -0.017	inactive: -0.041	active: 0.246
SLC10A7 isoform 1 (UniProt Q0GE19)	inactive: -0.002	inactive: -0.13	inactive: -0.05	inactive: -0.18	inactive: -0.089	inactive: 0.096	inactive: 0.001	inactive: 0.031	inactive: -0.095	inactive: 0.093
SGTB (UniProt Q96EQ0)	inactive: -0.009	inactive: -0.01	inactive: 0.017	inactive: 0.106	inactive: 0.04	inactive: -0.025	inactive: 0.051	inactive: -0.046	inactive: 0.011	inactive: -0.079
SLC12A9 (UniProt Q9BXP2)	inactive: 0.031	inactive: -0.081	inactive: -0.039	inactive: -0.045	inactive: -0.044	inactive: -0.034	–	inactive: -0.011	inactive: -0.075	inactive: 0.036
SERPINB5 (UniProt P36952)	inactive: 0.036	inactive: 0.777	inactive: -0.05	inactive: 0	inactive: -0.274	inactive: 0.241	–	inactive: -0.015	inactive: -0.021	inactive: -0.199
SIAH2 (UniProt O43255)	inactive: -0.006	inactive: 0.035	–	inactive: -0.11	–	inactive: 0.027	–	–	inactive: 0.007	inactive: 0.02
SLC12A7 (UniProt Q9Y666)	inactive: -0.055	–	–	inactive: -0.227	–	inactive: 0.116	–	–	–	inactive: 0.123
SLC17A5 (UniProt Q9NRA2)	inactive: -0.073	inactive: 0.231	–	inactive: -0.041	inactive: -0.087	inactive: 0.101	inactive: -0.008	–	inactive: 0.004	inactive: 0.05
SIX4 (UniProt Q9UIU6)	inactive: 0.025	inactive: -0.023	–	inactive: -0.002	–	inactive: 0.059	inactive: 0.287	–	inactive: -0.097	inactive: 0.014
SGSM3 isoform 2 (UniProt Q96HU1)	inactive: -0.001	–	inactive: 0.019	–	–	–	–	inactive: 0.019	–	–
SHB (UniProt Q15464)	inactive: -0.07	–	inactive: -0.044	inactive: -0.305	inactive: -0.034	inactive: 0.186	–	inactive: 0.028	–	inactive: -0.129

Reformatted as a markdown table: part of the list above.

| Target | log2 fold change (lapatinib) | log2 fold change (pictilisib) | log2 fold change (crizotinib) | log2 fold change [1] | log2 fold change (duvelisib) | log2 fold change (gandotinib) | log2 fold change (tozasertib) | log2 fold change (doramapimod) | log2 fold change (bafetinib) | log2 fold change [2] |
| --- | --- | --- | --- | --- | --- | --- | --- | --- | --- | --- |
| SH3KBP1 (UniProt Q96B97) | inactive: -0.041 | inactive: -0.094 | inactive: -0.027 | inactive: -0.034 | inactive: -0.04 | inactive: -0.004 | inactive: 0.034 | inactive: -0.03 | inactive: 0.035 | inactive: 0.044 |
| SGTB (UniProt Q96EQ0) | inactive: -0.009 | inactive: -0.01 | inactive: 0.017 | inactive: 0.106 | inactive: 0.04 | inactive: -0.025 | inactive: 0.051 | inactive: -0.046 | inactive: 0.011 | inactive: -0.079 |
| SLC12A9 (UniProt Q9BXP2) | inactive: 0.031 | inactive: -0.081 | inactive: -0.039 | inactive: -0.045 | inactive: -0.044 | inactive: -0.034 | – | inactive: -0.011 | inactive: -0.075 | inactive: 0.036 |

The list continues:

Target	log2 fold change (lapatinib)	log2 fold change (pictilisib)	log2 fold change (crizotinib)	log2 fold change [1]	log2 fold change (duvelisib)	log2 fold change (gandotinib)	log2 fold change (tozasertib)	log2 fold change (doramapimod)	log2 fold change (bafetinib)	log2 fold change [2]
SLC19A2 (UniProt O60779)	inactive: -0.163	inactive: -0.08	–	inactive: 0.024	inactive: 0.08	inactive: 0.072	inactive: -0.061	–	inactive: -0.332	inactive: -0.053
SF1 isoform 6 (UniProt Q15637)	inactive: 0.08	inactive: -0.012	–	inactive: -0.034	inactive: -0.267	inactive: 0.122	inactive: -0.078	–	inactive: 0.197	inactive: 0.049
SIAH1 isoform 2 (UniProt Q8IUQ4)	inactive: -0.016	–	inactive: 0.062	–	–	–	–	inactive: 0.011	–	–
SKP2 (UniProt Q13309)	inactive: -0.275	–	inactive: -0.159	inactive: -0.098	inactive: -0.024	inactive: -0.075	inactive: -0.096	inactive: -0.024	–	inactive: 0.104
SHFL (UniProt Q9NUL5)	inactive: 0.044	inactive: -0.009	inactive: -0.02	–	inactive: 0.031	–	inactive: -0.021	inactive: -0.139	inactive: 0.066	–
SFXN5 (UniProt Q8TD22)	inactive: -0.03	–	inactive: -0.04	–	inactive: 0.054	–	inactive: -0.032	inactive: -0.003	–	–
SKOR2 (UniProt Q2VWA4)	inactive: -0.041	–	inactive: -0.106	inactive: -0.388	inactive: 0.097	inactive: 0.275	inactive: -0.019	inactive: 0.184	–	inactive: 0.338
SFT2D3 (UniProt Q587I9)	inactive: -0.088	–	inactive: -0.098	inactive: -0.282	inactive: 0.003	inactive: 0.014	inactive: 0.024	inactive: -0.006	–	inactive: 0.09
SIRT3 (UniProt Q9NTG7)	inactive: 0.04	–	inactive: -0.015	–	inactive: 0.029	–	–	inactive: 0.023	–	–
SIX5 (UniProt Q8N196)	inactive: -0.105	inactive: 0.015	inactive: -0.075	inactive: 0.22	inactive: 0.039	active: -0.48	–	inactive: 0.143	inactive: -0.009	inactive: -0.306
SF3B2 (UniProt E9PJ04)	inactive: -0.075	inactive: -0.017	–	inactive: 0.082	–	inactive: -0.063	–	–	inactive: -0.166	inactive: 0
SERPINA12 (UniProt Q8IW75)	inactive: -0.225	inactive: 0.328	inactive: 0.009	–	inactive: 0.073	–	–	inactive: -0.171	inactive: -0.058	–
SLC18B1 (UniProt Q6NT16)	inactive: -0.003	–	inactive: 0.021	inactive: 0.023	–	inactive: 0.051	–	inactive: -0.072	–	inactive: 0.014
SETX isoform 4 (UniProt Q7Z333)	inactive: -0.135	–	inactive: -0.088	inactive: 0.074	inactive: 0.083	inactive: -0.213	inactive: -0.077	inactive: -0.009	–	inactive: 0.069
SESN1 isoform 2 (UniProt Q9Y6P5)	inactive: -0.449	inactive: 0.056	inactive: -0.318	inactive: -0.095	–	inactive: -0.244	inactive: 0.061	inactive: -0.056	inactive: -0.056	inactive: -0.006
SIPA1L1 (UniProt O43166)	inactive: 0.008	inactive: -0.021	inactive: -0.039	inactive: -0.097	–	inactive: 0.095	inactive: -0.011	inactive: -0.363	inactive: -0.014	inactive: 0.042
